# Experimental data reported in article PMC4379099 (PLoS Pathogens, 2015).
# Protein sequences, listed by entry. Tags and fused reporters are not part of them. Lines headed by an entry give the natural chain unless they say otherwise; changes in a name come on top. Residues count along the entry.
# UniProt C0LGT6, residues 674-1031: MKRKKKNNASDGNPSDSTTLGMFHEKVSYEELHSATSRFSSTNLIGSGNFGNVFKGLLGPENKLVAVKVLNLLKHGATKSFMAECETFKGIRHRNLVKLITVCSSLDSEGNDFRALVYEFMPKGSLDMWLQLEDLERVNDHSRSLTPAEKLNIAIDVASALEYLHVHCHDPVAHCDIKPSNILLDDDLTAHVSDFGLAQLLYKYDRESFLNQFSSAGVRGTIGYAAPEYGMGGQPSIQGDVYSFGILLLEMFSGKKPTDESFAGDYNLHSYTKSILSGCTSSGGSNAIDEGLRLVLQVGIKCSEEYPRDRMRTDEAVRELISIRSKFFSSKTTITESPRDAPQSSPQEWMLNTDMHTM
# UniProt Q84T94: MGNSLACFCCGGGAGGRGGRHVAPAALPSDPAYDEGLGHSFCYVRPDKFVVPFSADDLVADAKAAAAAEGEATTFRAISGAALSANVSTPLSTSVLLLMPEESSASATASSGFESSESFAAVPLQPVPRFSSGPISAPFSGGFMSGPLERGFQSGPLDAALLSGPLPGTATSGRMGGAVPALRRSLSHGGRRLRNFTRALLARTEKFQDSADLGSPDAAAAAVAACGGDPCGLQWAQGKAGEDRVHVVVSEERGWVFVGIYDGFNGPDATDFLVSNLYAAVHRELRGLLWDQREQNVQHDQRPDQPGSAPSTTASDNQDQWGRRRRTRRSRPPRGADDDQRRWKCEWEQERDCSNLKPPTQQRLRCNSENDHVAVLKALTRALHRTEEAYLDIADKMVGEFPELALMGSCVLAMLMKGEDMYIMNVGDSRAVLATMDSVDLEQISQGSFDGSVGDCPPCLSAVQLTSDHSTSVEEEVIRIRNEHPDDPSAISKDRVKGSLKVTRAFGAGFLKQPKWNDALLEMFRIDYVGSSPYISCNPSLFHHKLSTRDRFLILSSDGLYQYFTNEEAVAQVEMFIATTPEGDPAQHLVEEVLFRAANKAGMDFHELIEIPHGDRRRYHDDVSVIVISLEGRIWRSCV
# Results are given in words; binding and its absence hold for the method and conditions named. For some assays here: A result given as binding can be weak or reduced; the word gives no strength.
# Assays:
# [1] = molecular target: T1, XA21 intracellular domain (668-1025aa) (rice (Oryza longistaminata)) (UniProt Q40640); experiment: two-hybrid
# T1 sequence: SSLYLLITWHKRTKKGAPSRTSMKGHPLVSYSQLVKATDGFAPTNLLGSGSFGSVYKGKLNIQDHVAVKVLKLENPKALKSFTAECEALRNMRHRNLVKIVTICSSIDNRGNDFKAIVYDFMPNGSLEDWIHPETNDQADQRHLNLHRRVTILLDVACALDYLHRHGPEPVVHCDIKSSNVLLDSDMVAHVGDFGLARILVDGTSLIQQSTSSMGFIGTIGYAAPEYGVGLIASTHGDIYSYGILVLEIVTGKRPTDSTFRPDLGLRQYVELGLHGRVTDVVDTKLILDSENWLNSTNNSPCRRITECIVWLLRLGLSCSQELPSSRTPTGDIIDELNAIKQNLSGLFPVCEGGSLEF
# [2] = molecular target: EFR intracellular domain (ID) (674-1032aa) (Arabidopsis) (UniProt C0LGT6); experiment: two-hybrid
substance,measurement,setting,value
XB15 full-length (FL) (1-639aa) (from UniProt Q84T94) (enzyme),binding,[1],binds
same,binding,[2],no binding
